Test results as given in the supplement of paper PMC3334620.
Over roughly 33,000 sequences, “E-score (-0.5 to 0.5)” has its median near -0.0014; the highest 2% begin near 0.25. The list shows a part of the results.

target: T1, Cad1 (UniProt P24813); experiment: PBM E-score (8-mer binding enrichment) (E-score (-0.5 to 0.5)); higher = stronger / more preferred TF binding; details: protein concentration: 100 nM; construct: GST-full length
T1 sequence: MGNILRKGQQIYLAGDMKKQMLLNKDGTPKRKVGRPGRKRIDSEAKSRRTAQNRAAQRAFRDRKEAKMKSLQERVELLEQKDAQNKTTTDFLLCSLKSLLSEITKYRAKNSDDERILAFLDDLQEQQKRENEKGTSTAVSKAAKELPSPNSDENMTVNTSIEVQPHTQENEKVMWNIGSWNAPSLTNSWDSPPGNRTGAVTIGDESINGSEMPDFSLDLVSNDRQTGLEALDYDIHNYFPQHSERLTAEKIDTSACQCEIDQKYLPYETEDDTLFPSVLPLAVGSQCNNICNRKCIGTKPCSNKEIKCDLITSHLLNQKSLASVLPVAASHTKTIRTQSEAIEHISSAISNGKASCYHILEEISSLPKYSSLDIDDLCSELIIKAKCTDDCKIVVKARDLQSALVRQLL
Procedure, shortened: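 Masliner-normalised scans of fluorescent anti-GST signal were the basis for scoring. That signal came from GST-tagged yeast transcription factors applied at about 100-200 nM to double-stranded universal all-10-mer Agilent arrays on fresh or once-stripped slides. Each ungapped eight-base word, pooled with its reverse complement, received an E-score from the Universal PBM Analysis Suite.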

Row | Sequence | PBM E-score
1 | AAACTGAA | 0.0681
2 | ACGACCGG | -0.151
3 | CGAGTTCA | 0.18
4 | AAGGATAC | -0.0624
5 | GGGCCTAA | 0.00864
6 | CCTTTACA | 0.00128
7 | CCACGATA | 0.0424
8 | ATGTCGTC | -0.0531
9 | ACTTCGCC | 0.0662
10 | CTCTAATA | 0.142
11 | ACCTCGTG | 0.0262
12 | AACAGCCA | 0.106
13 | CTCACGTA | -0.0707
14 | AAGTTTAA | -0.14
15 | CGAACGTC | -0.111
16 | AAAGGGTT | -0.126
17 | ACATACAA | -0.103
18 | GACCTGCA | -0.116
19 | AATACAGT | -0.078
20 | AGGTGCTG | 0.0156
21 | AAAATTAG | 0.269
22 | AACGAGAC | -0.0583
23 | CATACAAA | 0.0561
24 | AAACCCTG | -0.0698
25 | TACCCCAA | -0.111

From entry 18 to 19, copied from above:
Row | Sequence | PBM E-score
18 | GACCTGCA | -0.116
19 | AATACAGT | -0.078

Pulled one by one from the entries so far, 3 records:
Row | Sequence | PBM E-score
21 | AAAATTAG | 0.269
6 | CCTTTACA | 0.00128
9 | ACTTCGCC | 0.0662

The results go on:

Row | Sequence | PBM E-score
26 | CCCCAGCG | -0.181
27 | CACTCGGG | 0.0224
28 | TCGCATAA | 0.137
29 | GTGATACA | 0.00492
30 | CATCCGTC | -0.00289
31 | AGATTGCC | 0.00042
32 | CGACAATA | 0.204
33 | CTCCCAAG | -0.193
34 | GTCCTTCA | 0.0516
35 | ATGCCTGA | -0.0626
36 | ATTAGCCC | -0.0965
37 | ACCTAATC | 0.259
38 | AAAGATAT | 0.277
39 | GAAACATC | -0.0415
40 | GAATGCCC | -0.363
41 | ATGTGGAG | -0.14
42 | CCAGATTC | -0.205
43 | CACGCCCG | -0.0611
44 | TCGCAGCA | 0.0936
45 | ATTGCGCG | 0.307
46 | CATAAGGC | 0.0526
47 | GACACGGC | -0.0501
48 | GGAAGCAA | -0.0549
49 | ATCATTTA | 0.114
50 | ACAATGCC | -0.107

Row | Sequence | PBM E-score
51 | GCCTTGCA | -0.117
52 | ATAAAGGG | -0.175
53 | CCTCTAAA | -0.0976
54 | AGCATCTC | -0.177
55 | AGCAGAGC | -0.268
56 | AGGACGTC | 0.0529
57 | ACCCTCTC | -0.183
58 | CACCATCG | -0.125
59 | GTCCCTAA | -0.0901
60 | CTCGCAAA | -0.106
61 | GACTGTAC | -0.137
62 | GCACAAAA | 0.18
63 | CATTACGA | 0.0111
64 | AACGATAA | 0.0289
65 | ATAACCCG | -0.101
66 | CCTGGGAA | -0.0443
67 | CCGATTCG | 0.189
68 | ACGGTCAA | -0.00707
69 | CCTGATCA | -0.0505
70 | CGTCATCC | 0.0396
71 | AAAGGATC | -0.0492
72 | CGAACCCA | 0.0048
73 | AAACTCTC | 0.229
74 | CATGGTTA | 0.205
75 | AAGGACTT | -0.217

Row | Sequence | PBM E-score
76 | AGCCTCAT | -0.165
77 | ATCTCATC | 0.15
78 | CAAATCCA | 0.136
79 | CGCCACCG | -0.0723
80 | CTGTACGA | 0.00563
81 | AGTGTGAG | -0.134
82 | AAGGGTCT | -0.22
83 | ACCAGTAG | -0.0961
84 | CTTGGATA | -0.00444
85 | ATTGGCGA | -0.0146
86 | GTTTAGGA | -0.189
87 | AGAGCGGA | 0.0529
88 | AATCACCT | -0.113
89 | CCGTATGC | -0.0646
90 | AGCCCTCG | -0.0628
91 | CAGTTAAA | -0.0815
92 | TTCTTAAA | -0.122
93 | AACAGATG | -0.0988
94 | GCGCGACC | 0.154
95 | GTCCATGA | -0.313
96 | CAGAAGGA | -0.289
97 | AACCTAAG | -0.0375
98 | AACTAGGG | -0.119
99 | ACAAAAAA | 0.161
100 | CCCGCAAA | 0.17

Row | Sequence | PBM E-score
101 | AAACAAAA | -0.0143
102 | TACCTAGA | 0.0238
103 | CAGGAAAA | 0.0524
104 | CGCGAGAA | 0.0165
105 | CACTGTCA | 0.0789
106 | CTCGCCTA | -0.0736
107 | CGGACCAC | 0.0528
108 | CATTTGTA | 0.241
109 | AAAGTTAC | 0.0464
110 | AGGGGCAT | -0.239
111 | GGTATTAA | 0.098
112 | AGACTGAG | -0.057
113 | AGCCCGCT | -0.137
114 | CGACCATA | -0.0443
115 | ATACGTCG | -0.00182
116 | TACAAATA | 0.185
117 | AAAGACAT | -0.226
118 | CGCCTGCA | -0.0131
119 | ACGGACTG | -0.016
120 | CGAACTAA | 0.0987
121 | AAAAACCA | 0.039
122 | GACGACGA | 0.021
123 | GGAAATCC | -0.00821
124 | GCGATAAC | 0.0347
125 | CATGTGAG | -0.124

Row | Sequence | PBM E-score
126 | CTGATTGC | 0.0638
127 | GATACAGC | 0.0704
128 | GTCAGATA | -0.0227
129 | ACGCTCAC | 0.197
130 | ATATCTAA | 0.152
131 | AAATCGGG | 0.0578
132 | CTCGGAGA | -0.0487
133 | TCTTAAGA | 0.0711
134 | GCCCAACC | -0.0909
135 | CAGACACG | -0.0273
136 | ATATTGTC | 0.223
137 | CTCCAATC | 0.0827
138 | AAGAGCCT | -0.136
139 | ATGCTAAG | -0.0463
140 | AACGTGTG | -0.0106
141 | AAGTGCCC | -0.108
142 | CTATGGGA | -0.144
143 | GACGATCC | 0.0273
144 | ACGCGGCG | 0.112
145 | ACCTTTCA | 0.0837
146 | TGACGTCA | 0.334
147 | AAACCATG | -0.015
148 | GTCCTAGA | -0.123
149 | GAACACGC | 0.0984
150 | CTGCTGAC | 0.275

Row | Sequence | PBM E-score
151 | CTAATCTA | 0.0215
152 | AGAACAGC | 0.00791
153 | ATCATAGC | 0.0969
154 | GAACTACC | -0.0676
155 | CGGTTATC | -0.109
156 | GGTAGATA | 0.16
157 | ATAAACAG | 0.00806
158 | CAATCACG | 0.0999
159 | TGTAAGAA | 0.21
160 | AATAATGG | 0.128
161 | TAACTAGA | 0.0799
162 | AACGACTA | 0.112
163 | AGAGACCA | -0.0203
164 | TCCGGCAA | 0.0992
165 | CGAGGTAA | 0.00901
166 | CTTAGGTA | 0.106
167 | AACCCGCT | -0.244
168 | ACTGAATA | 0.0821
169 | AAATACTT | 0.177
170 | GGCGTAAC | -0.137
171 | ATGATACA | 0.091
172 | ACATACGC | -0.0912
